Data: patent US6653300B2, “Pyrazole compounds useful as protein kinase inhibitors” (Vertex Pharmaceuticals Incorporated, priority 2000, dated 2003)
Some entries share one result that the patent states for a list of compounds.

Target: T1, Aurora-2 (Homo sapiens, UniProt O14965)
T1 sequence (O14965 1-403): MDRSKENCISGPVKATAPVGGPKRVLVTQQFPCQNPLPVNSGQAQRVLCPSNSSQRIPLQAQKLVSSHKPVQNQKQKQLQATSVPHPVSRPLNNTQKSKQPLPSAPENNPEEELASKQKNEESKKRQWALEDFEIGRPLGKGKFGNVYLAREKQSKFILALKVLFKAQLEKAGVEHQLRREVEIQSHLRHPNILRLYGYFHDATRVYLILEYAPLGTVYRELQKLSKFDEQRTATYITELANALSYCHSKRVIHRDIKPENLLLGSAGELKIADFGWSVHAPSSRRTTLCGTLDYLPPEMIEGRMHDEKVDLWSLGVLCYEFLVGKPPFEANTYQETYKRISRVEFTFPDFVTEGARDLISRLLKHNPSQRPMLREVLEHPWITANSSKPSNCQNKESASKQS
Test: Ki determination for the inhibition of Aurora-2 (coupled enzyme assay)
Assay type: biochemical
Conditions: 70 nM Aurora-2, 30° C.
Method: Compounds were screened in the following manner for their ability to inhibit Aurora-2 using a standard coupled enzyme assay (Fox et al (1998) Protein Sci 7, 2249).
To an assay stock buffer solution containing 0.1M HEPES 7.5, 10 mM MgCl2, 1 mM DTT, 25 mM NaCl, 2.5 mM phosphoenolpyruvate, […], 30 mg/ml pyruvate kinase, 10 mg/ml lactate dehydrogenase, […], and 800 μM peptide (LRRASLG, American Peptide, Sunnyvale, Calif.) was added a DMSO solution of a compound of the present invention to a final concentration of 30 μM. The resulting mixture was incubated at 30° C. for 10 min. The reaction was initiated by the addition of 10 μL of Aurora-2 stock solution to give a final concentration of 70 nM in the assay. The rates of reaction were obtained by monitoring absorbance at 340 nm over a 5 minute read time at 30° C. using a BioRad Ultramark plate reader (Hercules, Calif.). The Ki values were determined from the rate data as a function of inhibitor concentration.

Cc1cc(Nc2nc(Sc3nccn3C)nc3ccccc23)n[nH]1 [IIa-10, [2-(1-Methylimidazol-2-ylsulfanyl)-quinazolin-4-yl]-(5-methyl-2H-pyrazol-3-yl)-amine]
Ki: < 100 nM
